Results deposited as PubChem BioAssay AID1671195 (Yale University, 2021)
Aim: 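Genes whose knockdown alters LDL uptake in liver cancer cells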 (primary screen). Cells: human Huh7 hepatoma cells. Knock-down reagent: siRNA pool against human genes, 18 nM. Time to read-out: about 2 to 2.5 days of knockdown, then 8 h LDL uptake. Treatment: DiI-labelled LDL at 30 µg/ml for 8 h, in lipoprotein-deficient serum medium. Read-out: 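Per-cell DiI-LDL intensity by automated imaging; well means scaled to the plate median and given as a robust z-score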. Scale: robust z-score: higher = more LDL uptake after knockdown. Active means: 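a gene counts as active if at least two replicate z-scores exceed ±2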.
The whole screen tested about 22,000 reagents; shown is a random part of them. In the full data, about 1,510 (6.9%) are marked active. 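Active includes knockdowns raising or lowering LDL uptake; positive z-scores mean more uptake, negative mean less.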

Against CCDC51 (coiled-coil domain containing 51), the entry reads robust z-score, replicate 1 = 0.132; robust z-score, replicate 2 = -0.0964; robust z-score, replicate 3 = -0.157; inactive. With knock-down of DPY19L1 (dpy-19 like C-mannosyltransferase 1) the results were robust z-score, replicate 1 = -1.38; robust z-score, replicate 2 = -2.02; robust z-score, replicate 3 = 6.22; inactive. After knock-down of AASDHPPT the results were robust z-score, replicate 1 = -1.04; robust z-score, replicate 2 = -1.48; robust z-score, replicate 3 = -0.891; inactive. For NKX2-1 (NK2 homeobox 1), the entry reads robust z-score, replicate 1 = -1.14; robust z-score, replicate 2 = -0.378; robust z-score, replicate 3 = -0.867; inactive. Silencing of LOC441180 (retired record) resulted in: robust z-score, replicate 1 = 0.689; robust z-score, replicate 2 = -0.145; robust z-score, replicate 3 = -0.316; inactive. Knock-down of ZNF560 (zinc finger protein 560) gave: robust z-score, replicate 1 = -0.527; robust z-score, replicate 2 = 0.433; robust z-score, replicate 3 = -0.381; inactive.

For HOXB1 (homeobox B1), the values are robust z-score, replicate 1 = 0.274; robust z-score, replicate 2 = 0.68; robust z-score, replicate 3 = 1.18; inactive. Knock-down of USP17L2 (ubiquitin specific peptidase 17 like family member 2) resulted in: robust z-score, replicate 1 = -1.42; robust z-score, replicate 2 = -1.41; robust z-score, replicate 3 = -1.45; inactive. Against PLAC9P1 (placenta associated 9 pseudogene 1), the values are robust z-score, replicate 1 = -1.63; robust z-score, replicate 2 = -2.09; robust z-score, replicate 3 = -1.88; inactive. After knock-down of SLC30A7, the record shows robust z-score, replicate 1 = 1.16; robust z-score, replicate 2 = 0.696; robust z-score, replicate 3 = 0.13; inactive. FAM219A (family with sequence similarity 219 member A) showed robust z-score, replicate 1 = 0.254; robust z-score, replicate 2 = 0.097; robust z-score, replicate 3 = -0.0706; inactive. Silencing of LMO7 (LIM domain 7) came out at: robust z-score, replicate 1 = -0.916; robust z-score, replicate 2 = -0.313; robust z-score, replicate 3 = -1.09; inactive.

After knock-down of FGF16 (fibroblast growth factor 16) the results were robust z-score, replicate 1 = -2.47; robust z-score, replicate 2 = -2.3; robust z-score, replicate 3 = -2.79; active. For RCSD1 (RCSD domain containing 1) the deposit lists robust z-score, replicate 1 = 0.577; robust z-score, replicate 2 = -0.343; robust z-score, replicate 3 = -0.364; inactive. ALB (albumin) showed robust z-score, replicate 1 = 0.778; robust z-score, replicate 2 = -0.316; robust z-score, replicate 3 = 0.0515; inactive. After knock-down of SLC22A7 the results were robust z-score, replicate 1 = -1.02; robust z-score, replicate 2 = -1.09; robust z-score, replicate 3 = -0.784; inactive. STRN (striatin) scored robust z-score, replicate 1 = -1.39; robust z-score, replicate 2 = -0.0842; robust z-score, replicate 3 = 0.821; inactive. For PRPF40B (pre-mRNA processing factor 40B), the entry reads robust z-score, replicate 1 = 1.31; robust z-score, replicate 2 = 1.85; robust z-score, replicate 3 = 0.643; inactive.

Silencing of PDE10A (phosphodiesterase 10A) gave: robust z-score, replicate 1 = 0.885; robust z-score, replicate 2 = -0.69; robust z-score, replicate 3 = 0.382; inactive. PIGC (phosphatidylinositol glycan anchor biosynthesis class C) showed robust z-score, replicate 1 = -0.518; robust z-score, replicate 2 = -0.427; robust z-score, replicate 3 = -0.79; inactive. Knock-down of DHH (desert hedgehog signaling molecule) came out at: robust z-score, replicate 1 = 0.693; robust z-score, replicate 2 = 1.29; robust z-score, replicate 3 = -0.323; inactive. After knock-down of SYNRG (synergin gamma) the results were robust z-score, replicate 1 = -0.92; robust z-score, replicate 2 = -1.7; robust z-score, replicate 3 = -0.69; inactive. For NPIPB1P the deposit lists robust z-score, replicate 1 = 1.07; robust z-score, replicate 2 = 1.37; robust z-score, replicate 3 = 1.68; inactive. Silencing of MAX (MYC associated transcriptional regulator X) came out at: robust z-score, replicate 1 = -1.37; robust z-score, replicate 2 = -1.55; robust z-score, replicate 3 = -1.51; inactive.

RAB33A (RAB33A, member RAS oncogene family) showed robust z-score, replicate 1 = -0.391; robust z-score, replicate 2 = -0.643; robust z-score, replicate 3 = -0.676; inactive. Depletion of PILRA (paired immunoglobin like type 2 receptor alpha) came out at: robust z-score, replicate 1 = -2.55; robust z-score, replicate 2 = -0.00119; robust z-score, replicate 3 = 0.165; inactive. Silencing of GLP2R (glucagon like peptide 2 receptor) resulted in: robust z-score, replicate 1 = 0.219; robust z-score, replicate 2 = 0.516; robust z-score, replicate 3 = 0.248; inactive. Silencing of IFIT1 (interferon induced protein with tetratricopeptide repeats 1) resulted in: robust z-score, replicate 1 = -0.486; robust z-score, replicate 2 = 0.761; robust z-score, replicate 3 = -0.491; inactive. With knock-down of CCDC82 (coiled-coil domain containing 82) the results were robust z-score, replicate 1 = 0.737; robust z-score, replicate 2 = 0.87; robust z-score, replicate 3 = 1.22; inactive. Silencing of NR4A2 (nuclear receptor subfamily 4 group A member 2) came out at: robust z-score, replicate 1 = -1.46; robust z-score, replicate 2 = -1.6; robust z-score, replicate 3 = -2.13; inactive.

Called active, of those listed so far:
FGF16 (fibroblast growth factor 16) → robust z-score, replicate 1: -2.47; robust z-score, replicate 2: -2.3; robust z-score, replicate 3: -2.79; call: active
